Results: patent publication EP4768505A1 (Shenzhen Genocury Biotech Co., Ltd, dated 2026)
No constants are given. Whether binding was seen depends on the method and setting. Some entries that bind do so weakly or less than the wild type.

Protein sequences, listed by entry. Tags and fused reporters are not part of them. Residues count along the entry.
UniProt P40259, residues 29-229: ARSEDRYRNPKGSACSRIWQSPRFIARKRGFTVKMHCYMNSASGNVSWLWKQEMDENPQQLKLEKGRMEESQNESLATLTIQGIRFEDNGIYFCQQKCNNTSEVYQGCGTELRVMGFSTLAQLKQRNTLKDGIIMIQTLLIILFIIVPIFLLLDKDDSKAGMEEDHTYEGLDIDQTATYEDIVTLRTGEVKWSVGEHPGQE

Key:
human CD79B antigen [1] = target: T1, human CD79B antigen (a full-length protein containing signal peptide, UniProt ID: P40259) on cells (human) (UniProt P40259); test: flow cytometry on HEK-293T cells overexpressing CD79B-GFP, 0.1 mg/mL, APC-His tag antibody
human CD79B antigen [2] = target: T1, human CD79B antigen; test: flow cytometry, legend of FIG. 1

binding (human CD79B antigen [1]): binds
binding (human CD79B antigen [2]): binds
B1: anti-CD79B single-domain antibody JYB8 (VHH, not shown: small tags and cut ends)
VHH: DVQLQESGGGLMQPGGSLSLTCTASISSLSIWVRAWHRQAPGKQRELVAAINSDGQTMYADSVKGRFTISRDSAKTTVSLQMDSLKPEDTAVYYCNVVTPKGQQYWGQGTQVTVSS
